Measurements reported in PubChem BioAssay AID1224830 (NIAID, 2016)

Screen: 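Host factors that control LPS-induced TNF expression in human macrophages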 (primary screen)
Cells: human THP-1 monocytic leukaemia cells, TNF dual-luciferase reporter clone, PMA-differentiated to macrophage-like cells
Knock-down reagent: siRNA pool against human genes, 50 nM
Duration: LPS for 4 h, given about 3 days after siRNA transfection
Conditions: bacterial LPS (TLR4 ligand), 10 ng/ml
Measured: 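Ratio of firefly to renilla light, scaled to the plate median and expressed as a robust z-score per replicate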
Scale: TNF reporter robust z-score: higher = stronger TNF reporter response to LPS
Active means: 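Each well counts as active if its z-score is over 2.8 or under -1.5; controls are left without a call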
The deposit covers about 18,000 reagents; below is a random part of them. In the full data, about 2,900 (16%) were called active. 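Calls are made per well; low scores hint the gene aids the LPS response, high scores that it dampens it.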 Repeated entries: four replicate wells of each siRNA pool.

| Gene | TNF reporter robust z-score | outcome |
| --- | --- | --- |
| NR2F6 (nuclear receptor subfamily 2 group F member 6) | -1.07 | inactive |
| NR2F6 (nuclear receptor subfamily 2 group F member 6) | -0.23 | inactive |
| NR2F6 (nuclear receptor subfamily 2 group F member 6) | 0.18 | inactive |
| NR2F6 (nuclear receptor subfamily 2 group F member 6) | -0.55 | inactive |
| CFAP65 (cilia and flagella associated protein 65) | 1.26 | inactive |
| CFAP65 (cilia and flagella associated protein 65) | 2.49 | inactive |
| CFAP65 (cilia and flagella associated protein 65) | 2.1 | inactive |
| CFAP65 (cilia and flagella associated protein 65) | 0.9 | inactive |
| GLRA2 (glycine receptor alpha 2) | -0.4 | inactive |
| GLRA2 (glycine receptor alpha 2) | 0.02 | inactive |
| GLRA2 (glycine receptor alpha 2) | -0.36 | inactive |
| GLRA2 (glycine receptor alpha 2) | 0.51 | inactive |
| MYPOP (Myb related transcription factor, partner of profilin) | -1.46 | inactive |
| MYPOP (Myb related transcription factor, partner of profilin) | -0.67 | inactive |
| MYPOP (Myb related transcription factor, partner of profilin) | -0.99 | inactive |
| MYPOP (Myb related transcription factor, partner of profilin) | 0.6 | inactive |
| PARD6A (par-6 family cell polarity regulator alpha) | -1.04 | inactive |
| PARD6A (par-6 family cell polarity regulator alpha) | -0.51 | inactive |
| PARD6A (par-6 family cell polarity regulator alpha) | -0.73 | inactive |
| PARD6A (par-6 family cell polarity regulator alpha) | 0.05 | inactive |
| ACSM2A (acyl-CoA synthetase medium chain family member 2A) | -1 | inactive |
| ACSM2A (acyl-CoA synthetase medium chain family member 2A) | 0.58 | inactive |
| ACSM2A (acyl-CoA synthetase medium chain family member 2A) | 0.91 | inactive |
| ACSM2A (acyl-CoA synthetase medium chain family member 2A) | -0.66 | inactive |
| P2RY8 (P2Y receptor family member 8) | -0.43 | inactive |
| P2RY8 (P2Y receptor family member 8) | -0.31 | inactive |
| P2RY8 (P2Y receptor family member 8) | -0.7 | inactive |
| P2RY8 (P2Y receptor family member 8) | 0.06 | inactive |
| NAV1 (neuron navigator 1) | -0.64 | inactive |
| NAV1 (neuron navigator 1) | -0.01 | inactive |
| NAV1 (neuron navigator 1) | -0.53 | inactive |
| NAV1 (neuron navigator 1) | 0.07 | inactive |
| OR6K3 (olfactory receptor family 6 subfamily K member 3) | 0.86 | inactive |
| OR6K3 (olfactory receptor family 6 subfamily K member 3) | -0.02 | inactive |
| OR6K3 (olfactory receptor family 6 subfamily K member 3) | 0.51 | inactive |
| OR6K3 (olfactory receptor family 6 subfamily K member 3) | -0.04 | inactive |
| RBM14 (RNA binding motif protein 14) | -0.28 | inactive |
| RBM14 (RNA binding motif protein 14) | 0.09 | inactive |
| RBM14 (RNA binding motif protein 14) | -0.33 | inactive |
| RBM14 (RNA binding motif protein 14) | -0.59 | inactive |
| GLRA4 (glycine receptor alpha 4 (pseudogene)) | -0.4 | inactive |
| GLRA4 (glycine receptor alpha 4 (pseudogene)) | 2.95 | active |
| GLRA4 (glycine receptor alpha 4 (pseudogene)) | 0.14 | inactive |
| GLRA4 (glycine receptor alpha 4 (pseudogene)) | -0.05 | inactive |
| MTA3 (metastasis associated 1 family member 3) | -0.92 | inactive |
| MTA3 (metastasis associated 1 family member 3) | -0.54 | inactive |
| MTA3 (metastasis associated 1 family member 3) | -0.36 | inactive |
| MTA3 (metastasis associated 1 family member 3) | -0.4 | inactive |
| MT1H (metallothionein 1H) | -0.69 | inactive |
| MT1H (metallothionein 1H) | -0.51 | inactive |
| MT1H (metallothionein 1H) | -0.04 | inactive |
| MT1H (metallothionein 1H) | -0.26 | inactive |
| SPC24 (SPC24 component of NDC80 kinetochore complex) | 0.17 | inactive |
| SPC24 (SPC24 component of NDC80 kinetochore complex) | 1.54 | inactive |
| SPC24 (SPC24 component of NDC80 kinetochore complex) | 0.2 | inactive |
| SPC24 (SPC24 component of NDC80 kinetochore complex) | 0.68 | inactive |
| POLR2H (RNA polymerase II, I and III subunit H) | -1.65 | active |
| POLR2H (RNA polymerase II, I and III subunit H) | -0.42 | inactive |
| POLR2H (RNA polymerase II, I and III subunit H) | 0.02 | inactive |
| POLR2H (RNA polymerase II, I and III subunit H) | 0.18 | inactive |
| PCOTH (prostate and testis expressed opposite C1QTNF9B and MIPEP) | 0.22 | inactive |
| PCOTH (prostate and testis expressed opposite C1QTNF9B and MIPEP) | 1.11 | inactive |
| PCOTH (prostate and testis expressed opposite C1QTNF9B and MIPEP) | 0.49 | inactive |
| PCOTH (prostate and testis expressed opposite C1QTNF9B and MIPEP) | 0.25 | inactive |
| VRTN (vertebrae development associated) | 0.66 | inactive |
| VRTN (vertebrae development associated) | -0.37 | inactive |
| VRTN (vertebrae development associated) | -1.13 | inactive |
| VRTN (vertebrae development associated) | -0.68 | inactive |
| RNF185 (ring finger protein 185) | -1.4 | inactive |
| RNF185 (ring finger protein 185) | -2.04 | active |
| RNF185 (ring finger protein 185) | -0.43 | inactive |
| RNF185 (ring finger protein 185) | 0.35 | inactive |
| CLEC4G (C-type lectin domain family 4 member G) | 1.98 | inactive |
| CLEC4G (C-type lectin domain family 4 member G) | 0.9 | inactive |
| CLEC4G (C-type lectin domain family 4 member G) | -0.1 | inactive |
| CLEC4G (C-type lectin domain family 4 member G) | 0.31 | inactive |
